Measurements from the supplement of paper PMC12067093, “Discovery and optimisation of a covalent ligand for TRIM25 and its application to targeted protein ubiquitination” (Chemical Science, 2025).
This is one part of the list.
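Further: competitive chemoproteomic profiling in live THP-1 cells with an iodoacetamide desthiobiotin (IA-DTB) probe, comparing probe-labelled peptide intensities in compound-treated cells against DMSO-treated controls.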

Amino acid sequences for entries named in this document (tags omitted). A change or cut given only in a name is not applied to a line headed by its entry.
UniProt Q92621: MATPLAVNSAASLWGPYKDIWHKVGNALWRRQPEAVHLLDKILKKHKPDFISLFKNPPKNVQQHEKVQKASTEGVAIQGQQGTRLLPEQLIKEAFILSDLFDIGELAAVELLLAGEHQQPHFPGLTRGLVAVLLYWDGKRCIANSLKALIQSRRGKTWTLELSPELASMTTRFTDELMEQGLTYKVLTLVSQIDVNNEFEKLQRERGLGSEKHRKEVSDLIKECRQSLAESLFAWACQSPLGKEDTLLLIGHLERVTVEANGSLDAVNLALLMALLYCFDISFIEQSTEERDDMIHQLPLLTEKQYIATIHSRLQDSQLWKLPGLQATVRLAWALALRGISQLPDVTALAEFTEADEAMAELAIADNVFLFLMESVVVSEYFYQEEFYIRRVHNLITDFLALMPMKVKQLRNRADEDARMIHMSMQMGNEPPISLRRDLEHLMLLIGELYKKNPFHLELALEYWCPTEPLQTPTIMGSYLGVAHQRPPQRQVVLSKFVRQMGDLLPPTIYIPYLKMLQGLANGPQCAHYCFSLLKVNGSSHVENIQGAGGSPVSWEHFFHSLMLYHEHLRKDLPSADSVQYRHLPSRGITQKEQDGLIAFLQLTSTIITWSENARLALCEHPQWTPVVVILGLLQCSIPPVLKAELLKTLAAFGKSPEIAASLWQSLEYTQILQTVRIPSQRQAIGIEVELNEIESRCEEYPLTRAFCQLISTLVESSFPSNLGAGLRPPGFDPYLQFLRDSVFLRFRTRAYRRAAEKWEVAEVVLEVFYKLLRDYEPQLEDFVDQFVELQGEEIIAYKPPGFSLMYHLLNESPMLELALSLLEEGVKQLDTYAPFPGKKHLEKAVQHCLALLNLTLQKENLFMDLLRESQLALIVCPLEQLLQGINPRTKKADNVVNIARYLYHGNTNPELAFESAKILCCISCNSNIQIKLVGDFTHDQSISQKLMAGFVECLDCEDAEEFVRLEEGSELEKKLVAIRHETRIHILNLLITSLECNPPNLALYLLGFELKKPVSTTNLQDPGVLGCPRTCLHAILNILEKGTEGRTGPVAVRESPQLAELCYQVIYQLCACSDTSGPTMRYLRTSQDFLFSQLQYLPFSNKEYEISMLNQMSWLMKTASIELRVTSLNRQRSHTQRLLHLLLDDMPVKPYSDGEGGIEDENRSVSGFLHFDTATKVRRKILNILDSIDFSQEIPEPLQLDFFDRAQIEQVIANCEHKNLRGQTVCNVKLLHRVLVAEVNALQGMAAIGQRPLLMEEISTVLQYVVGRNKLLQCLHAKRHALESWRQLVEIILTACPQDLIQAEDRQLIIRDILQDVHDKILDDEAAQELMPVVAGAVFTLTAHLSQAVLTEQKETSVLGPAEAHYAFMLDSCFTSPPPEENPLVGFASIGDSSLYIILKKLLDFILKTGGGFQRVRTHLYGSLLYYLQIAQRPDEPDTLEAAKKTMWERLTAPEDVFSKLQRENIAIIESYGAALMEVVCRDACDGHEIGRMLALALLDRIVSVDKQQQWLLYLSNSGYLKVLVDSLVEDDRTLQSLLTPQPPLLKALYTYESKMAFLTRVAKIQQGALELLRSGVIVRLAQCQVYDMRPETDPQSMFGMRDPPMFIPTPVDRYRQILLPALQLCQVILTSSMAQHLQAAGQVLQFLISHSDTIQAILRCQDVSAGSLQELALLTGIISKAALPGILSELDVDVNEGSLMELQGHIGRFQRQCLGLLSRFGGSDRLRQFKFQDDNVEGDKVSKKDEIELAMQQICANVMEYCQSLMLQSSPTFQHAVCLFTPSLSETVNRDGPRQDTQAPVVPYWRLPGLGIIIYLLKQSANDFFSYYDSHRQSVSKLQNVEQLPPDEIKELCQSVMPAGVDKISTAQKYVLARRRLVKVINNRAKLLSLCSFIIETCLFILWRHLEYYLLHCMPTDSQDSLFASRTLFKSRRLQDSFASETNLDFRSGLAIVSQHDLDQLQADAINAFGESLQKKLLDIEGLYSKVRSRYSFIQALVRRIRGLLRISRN
UniProt Q5SWX8: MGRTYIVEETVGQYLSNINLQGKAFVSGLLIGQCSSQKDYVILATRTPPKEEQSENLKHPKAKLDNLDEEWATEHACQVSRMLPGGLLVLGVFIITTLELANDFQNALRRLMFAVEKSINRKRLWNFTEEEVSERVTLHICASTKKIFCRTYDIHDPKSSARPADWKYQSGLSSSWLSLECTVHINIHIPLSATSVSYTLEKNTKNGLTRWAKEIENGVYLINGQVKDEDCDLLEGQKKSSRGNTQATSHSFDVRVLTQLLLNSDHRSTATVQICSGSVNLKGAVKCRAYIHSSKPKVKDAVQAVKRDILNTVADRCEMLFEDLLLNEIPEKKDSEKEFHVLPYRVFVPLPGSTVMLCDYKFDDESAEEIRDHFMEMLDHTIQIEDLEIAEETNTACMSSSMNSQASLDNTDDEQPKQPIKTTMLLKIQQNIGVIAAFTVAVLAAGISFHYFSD
UniProt Q96E22: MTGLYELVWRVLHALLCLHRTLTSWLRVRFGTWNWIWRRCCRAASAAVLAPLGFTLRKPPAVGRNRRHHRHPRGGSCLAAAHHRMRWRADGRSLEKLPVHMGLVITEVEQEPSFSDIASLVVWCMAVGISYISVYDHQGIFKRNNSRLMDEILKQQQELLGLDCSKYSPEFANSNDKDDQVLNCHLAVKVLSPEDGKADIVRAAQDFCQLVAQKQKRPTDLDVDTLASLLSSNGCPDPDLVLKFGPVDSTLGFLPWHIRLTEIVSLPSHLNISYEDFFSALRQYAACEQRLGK
UniProt Q9Y266: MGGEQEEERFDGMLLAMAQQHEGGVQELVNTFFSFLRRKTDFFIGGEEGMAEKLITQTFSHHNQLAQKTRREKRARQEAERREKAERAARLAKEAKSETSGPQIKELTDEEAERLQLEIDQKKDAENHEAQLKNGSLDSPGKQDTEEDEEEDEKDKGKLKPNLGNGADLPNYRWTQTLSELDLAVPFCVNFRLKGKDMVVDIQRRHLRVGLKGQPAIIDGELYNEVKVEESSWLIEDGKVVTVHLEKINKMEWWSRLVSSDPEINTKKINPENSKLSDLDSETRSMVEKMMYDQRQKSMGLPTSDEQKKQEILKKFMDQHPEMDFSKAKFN
UniProt Q9BQG2: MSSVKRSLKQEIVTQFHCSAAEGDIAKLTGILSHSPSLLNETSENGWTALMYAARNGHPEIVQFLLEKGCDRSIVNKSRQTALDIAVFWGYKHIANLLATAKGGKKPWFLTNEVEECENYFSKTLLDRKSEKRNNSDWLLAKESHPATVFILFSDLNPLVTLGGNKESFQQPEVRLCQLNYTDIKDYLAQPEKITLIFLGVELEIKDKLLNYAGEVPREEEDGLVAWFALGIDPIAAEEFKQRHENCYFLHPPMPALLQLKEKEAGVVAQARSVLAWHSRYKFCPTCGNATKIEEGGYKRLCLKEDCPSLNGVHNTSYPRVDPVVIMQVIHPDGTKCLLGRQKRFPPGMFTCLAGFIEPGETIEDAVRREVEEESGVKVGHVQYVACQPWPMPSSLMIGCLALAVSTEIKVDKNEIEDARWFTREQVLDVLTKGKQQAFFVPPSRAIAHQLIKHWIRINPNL
UniProt O15381: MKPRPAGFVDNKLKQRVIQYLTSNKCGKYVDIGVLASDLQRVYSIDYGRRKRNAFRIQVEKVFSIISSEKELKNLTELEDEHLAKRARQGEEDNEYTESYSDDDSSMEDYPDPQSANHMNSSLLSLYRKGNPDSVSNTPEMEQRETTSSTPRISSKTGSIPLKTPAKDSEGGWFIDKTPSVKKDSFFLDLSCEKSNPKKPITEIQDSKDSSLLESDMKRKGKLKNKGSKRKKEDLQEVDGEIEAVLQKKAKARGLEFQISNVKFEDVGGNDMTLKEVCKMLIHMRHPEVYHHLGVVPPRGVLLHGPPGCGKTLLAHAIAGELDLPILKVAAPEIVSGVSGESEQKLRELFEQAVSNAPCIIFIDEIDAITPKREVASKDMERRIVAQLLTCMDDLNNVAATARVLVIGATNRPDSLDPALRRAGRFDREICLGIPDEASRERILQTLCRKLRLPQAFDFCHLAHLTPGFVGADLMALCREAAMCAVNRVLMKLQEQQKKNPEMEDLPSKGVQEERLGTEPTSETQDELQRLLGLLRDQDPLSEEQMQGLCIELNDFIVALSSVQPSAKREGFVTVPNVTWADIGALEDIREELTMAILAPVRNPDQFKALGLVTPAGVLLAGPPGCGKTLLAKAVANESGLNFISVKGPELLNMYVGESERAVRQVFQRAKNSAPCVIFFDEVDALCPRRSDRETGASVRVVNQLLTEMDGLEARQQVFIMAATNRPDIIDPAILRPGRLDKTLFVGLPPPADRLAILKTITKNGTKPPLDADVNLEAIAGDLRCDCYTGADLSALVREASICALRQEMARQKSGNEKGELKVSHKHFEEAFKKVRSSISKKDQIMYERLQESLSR
UniProt P00973: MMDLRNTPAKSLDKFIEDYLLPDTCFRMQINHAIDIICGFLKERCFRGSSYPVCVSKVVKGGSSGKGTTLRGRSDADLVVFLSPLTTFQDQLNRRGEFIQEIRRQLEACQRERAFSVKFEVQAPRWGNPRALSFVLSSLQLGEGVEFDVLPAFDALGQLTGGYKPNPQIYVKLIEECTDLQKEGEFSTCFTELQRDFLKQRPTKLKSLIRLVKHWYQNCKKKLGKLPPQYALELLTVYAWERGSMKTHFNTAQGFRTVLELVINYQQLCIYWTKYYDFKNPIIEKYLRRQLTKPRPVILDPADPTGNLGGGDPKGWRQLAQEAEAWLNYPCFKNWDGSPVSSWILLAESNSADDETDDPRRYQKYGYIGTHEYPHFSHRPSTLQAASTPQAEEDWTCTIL
UniProt Q8WV74: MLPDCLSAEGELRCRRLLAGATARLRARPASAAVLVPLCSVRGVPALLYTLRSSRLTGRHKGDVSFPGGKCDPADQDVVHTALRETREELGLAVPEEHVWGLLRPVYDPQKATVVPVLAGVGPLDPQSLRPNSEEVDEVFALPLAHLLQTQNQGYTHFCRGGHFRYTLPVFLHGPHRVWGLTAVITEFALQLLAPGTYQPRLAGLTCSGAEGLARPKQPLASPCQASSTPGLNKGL
UniProt P49790, whole entry, looked up: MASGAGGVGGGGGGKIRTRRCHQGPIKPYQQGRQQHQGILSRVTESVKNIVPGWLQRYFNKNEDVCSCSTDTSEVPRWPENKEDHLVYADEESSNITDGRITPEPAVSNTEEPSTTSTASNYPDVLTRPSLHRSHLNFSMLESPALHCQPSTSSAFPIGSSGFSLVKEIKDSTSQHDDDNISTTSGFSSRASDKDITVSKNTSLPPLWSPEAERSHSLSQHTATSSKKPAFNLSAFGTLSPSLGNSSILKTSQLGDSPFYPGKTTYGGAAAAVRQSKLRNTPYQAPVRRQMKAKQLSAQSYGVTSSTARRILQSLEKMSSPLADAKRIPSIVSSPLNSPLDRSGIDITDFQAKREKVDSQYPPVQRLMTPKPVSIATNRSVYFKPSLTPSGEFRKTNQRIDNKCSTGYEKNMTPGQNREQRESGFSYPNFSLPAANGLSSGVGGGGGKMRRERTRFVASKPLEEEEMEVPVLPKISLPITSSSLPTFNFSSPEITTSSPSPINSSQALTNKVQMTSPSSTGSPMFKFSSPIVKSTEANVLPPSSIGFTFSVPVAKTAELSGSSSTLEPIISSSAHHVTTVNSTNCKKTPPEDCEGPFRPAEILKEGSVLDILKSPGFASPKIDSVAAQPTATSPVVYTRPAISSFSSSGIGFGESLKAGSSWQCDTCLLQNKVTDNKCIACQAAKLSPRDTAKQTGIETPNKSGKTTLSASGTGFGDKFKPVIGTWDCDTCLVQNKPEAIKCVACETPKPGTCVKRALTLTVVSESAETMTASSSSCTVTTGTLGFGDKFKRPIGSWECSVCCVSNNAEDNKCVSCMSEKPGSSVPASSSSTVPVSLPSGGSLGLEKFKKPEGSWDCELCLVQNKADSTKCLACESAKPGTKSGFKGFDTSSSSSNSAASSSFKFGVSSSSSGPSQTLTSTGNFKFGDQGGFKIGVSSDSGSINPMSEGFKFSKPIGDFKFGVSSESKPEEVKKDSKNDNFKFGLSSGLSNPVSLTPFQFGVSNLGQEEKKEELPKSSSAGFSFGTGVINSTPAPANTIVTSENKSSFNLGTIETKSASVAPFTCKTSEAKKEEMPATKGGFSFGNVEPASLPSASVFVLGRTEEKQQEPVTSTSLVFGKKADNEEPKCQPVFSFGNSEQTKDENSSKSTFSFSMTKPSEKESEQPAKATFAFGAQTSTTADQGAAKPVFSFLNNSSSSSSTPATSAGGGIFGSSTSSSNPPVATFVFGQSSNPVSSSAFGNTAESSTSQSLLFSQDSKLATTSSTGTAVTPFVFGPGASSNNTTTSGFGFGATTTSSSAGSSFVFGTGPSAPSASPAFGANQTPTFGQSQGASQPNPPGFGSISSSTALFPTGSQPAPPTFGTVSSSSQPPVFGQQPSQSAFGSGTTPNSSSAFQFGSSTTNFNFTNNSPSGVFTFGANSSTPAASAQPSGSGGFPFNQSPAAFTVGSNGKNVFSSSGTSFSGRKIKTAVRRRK

The targets below were run with CC1Cc2ccccc2N1C(=O)C1CCCN(C1)C(=O)CCl (mixture of isomers) [TRIM25 ligand 11 (diastereomer mixture)] (assay: probe-labelled cysteine peptide fold change vs DMSO (competition) (log2 fold change); higher = less target engagement (more negative = stronger competition)). Conditions: 10 µM; THP-1; incubation time: 4 h.
With “NUDT18_Q6ZVK8_241_LLQECLTLHHLVVEIK (UniProt Q6ZVK8)” the “probe-labelled cysteine peptide fold change” value was -0.0478.
With “NUP205_Q92621_530_MLQGLANGPQCAHYCFSLLK (UniProt Q92621)” the “probe-labelled cysteine peptide fold change” value was 0.0757.
With “NUP43_Q8NFH3_222_QQGNEPSQILSLTGDRVPLHCVDR (UniProt Q8NFH3)” the “probe-labelled cysteine peptide fold change” value was 0.0644.
In the case of “NUP98_P52948_1027_ADTSQEICSPR (UniProt P52948)”, the “probe-labelled cysteine peptide fold change” value is reported as 0.0552.
“ODR4_Q5SWX8_77_LDNLDEEWATEHACQVSR (UniProt Q5SWX8)” was tested, and the “probe-labelled cysteine peptide fold change” value was 0.21.
With “NUMA1_Q14980_1907_NSFYMGTCQDEPEQLDDWNR (UniProt Q14980)” the “probe-labelled cysteine peptide fold change” value was 0.235.
With “NUMA1_Q14980_1367_HLCQQLQAEQAAAEK (UniProt Q14980)” the “probe-labelled cysteine peptide fold change” value was 0.0481.
For “NUP43_Q8NFH3_222_QQGNEPSQILSLTGDRVPLHCVDRHPNQQHVVATGGQDGMLSIWDVR (UniProt Q8NFH3)”, the “probe-labelled cysteine peptide fold change” value was -0.214.
With “NUP93_Q8N1F7_209_IVNGHLQPNLVDLCASVAELDDK (UniProt Q8N1F7)” the “probe-labelled cysteine peptide fold change” value was 0.069.
With “OGFOD3_Q6PK18_90_FIEVPCSEDYDSHR (UniProt Q6PK18)” the “probe-labelled cysteine peptide fold change” value was -0.0633.
In the case of “OGDH_Q02218_283_RFGLEGCEVLIPALK (UniProt Q02218)”, the “probe-labelled cysteine peptide fold change” value is reported as 0.00857.
For “NUS1_Q96E22_164_QQQELLGLDCSK (UniProt Q96E22)”, the “probe-labelled cysteine peptide fold change” value was 0.279.
For “NUMA1_Q14980_1367_HLCQQLQAEQAAAEKR (UniProt Q14980)”, the “probe-labelled cysteine peptide fold change” value was -0.15.
With “NUP160_Q12769_318_EQMCLMVADMLEYVPVKK (UniProt Q12769)” the “probe-labelled cysteine peptide fold change” value was 0.169.
In the case of “NUMA1_Q14980_1673_EAEQTCR (UniProt Q14980)”, the “probe-labelled cysteine peptide fold change” value is reported as -0.0221.
In the case of “NUDT14_O95848_127_EAWEECGYHLAPSDLRR (UniProt O95848)”, the “probe-labelled cysteine peptide fold change” value is reported as -0.253.
In the case of “NUDC_Q9Y266_188_WTQTLSELDLAVPFCVNFR (UniProt Q9Y266)”, the “probe-labelled cysteine peptide fold change” value is reported as -0.0574.
In the case of “NUDT12_Q9BQG2_247_QRHENCYFLHPPMPALLQLK (UniProt Q9BQG2)”, the “probe-labelled cysteine peptide fold change” value is reported as -0.072.
“NUP160_Q12769_303_GDQSPSDRPLSLAVHCVEHDAFIFALCQDHK (UniProt Q12769)” was tested, and the “probe-labelled cysteine peptide fold change” value was 0.212.
“NUBP2_Q9Y5Y2_196_VMGIVENMSGFTCPHCTECTSVFSR (UniProt Q9Y5Y2)” was tested, and the “probe-labelled cysteine peptide fold change” value was -0.103.
With “NVL_O15381_626_ALGLVTPAGVLLAGPPGCGK (UniProt O15381)” the “probe-labelled cysteine peptide fold change” value was 0.11.
For “OCIAD2_Q56VL3_46_ECQEESFWK (UniProt Q56VL3)”, the “probe-labelled cysteine peptide fold change” value was 0.0208.
For “NUP107_P57740_78_QPDISCILGTGGK (UniProt P57740)”, the “probe-labelled cysteine peptide fold change” value was -0.049.
In the case of “OGDH_Q02218_283_FGLEGCEVLIPALK (UniProt Q02218)”, the “probe-labelled cysteine peptide fold change” value is reported as 0.113.
With “OGDH_Q02218_507_DVVVDLVCYR (UniProt Q02218)” the “probe-labelled cysteine peptide fold change” value was 0.0554.
With “OGFOD1_Q8N543_64_RTPFSHEVIVMDMDPFLHCVIPNFIQSQDFLEGLQK (UniProt Q8N543)” the “probe-labelled cysteine peptide fold change” value was -0.278.
“OBSL1_O75147_209_LPDSGVYVCHAR (UniProt O75147)” was tested, and the “probe-labelled cysteine peptide fold change” value was -0.0379.
“NUDT14_O95848_12_CAASPYLRPLTLHYR (UniProt O95848)” was tested, and the “probe-labelled cysteine peptide fold change” value was -0.125.
“NUMA1_Q14980_80_KHPSSPECLVSAQK (UniProt Q14980)” was tested, and the “probe-labelled cysteine peptide fold change” value was 0.0689.
“OAS1_P00973_25_FIEDYLLPDTCFR (UniProt P00973)” was tested, and the “probe-labelled cysteine peptide fold change” value was -0.0642.
In the case of “NUDT8_Q8WV74_39_ARPASAAVLVPLCSVR (UniProt Q8WV74)”, the “probe-labelled cysteine peptide fold change” value is reported as -0.0587.
“NUP133_Q8WUM0_700+702_EVSQVDTICECLLEHEEQVLR (UniProt Q8WUM0)” was tested, and the “probe-labelled cysteine peptide fold change” value was 0.507.
“NUDT21_O43809_144_QDGVLQDWVIDDCIGNWWRPNFEPPQYPYIPAHITKPK (UniProt O43809)” was tested, and the “probe-labelled cysteine peptide fold change” value was 0.0645.
“OGFOD1_Q8N543_308_VCEALEHGHVEWSSR (UniProt Q8N543)” was tested, and the “probe-labelled cysteine peptide fold change” value was 0.234.
For “NUMA1_Q14980_65_LDFVCSFLQK (UniProt Q14980)”, the “probe-labelled cysteine peptide fold change” value was 0.109.
For “NUP153_P49790_860_FKKPEGSWDCELCLVQNK (UniProt P49790)”, the “probe-labelled cysteine peptide fold change” value was -0.102.
With “NUP98_P52948_1419_KQINVCSQLDWK (UniProt P52948)” the “probe-labelled cysteine peptide fold change” value was 0.0244.

Same assay, conditions: 50 µM; THP-1; incubation time: 4 h
For “NUDT18_Q6ZVK8_241_LLQECLTLHHLVVEIK (UniProt Q6ZVK8)”, the “probe-labelled cysteine peptide fold change” value was 0.071.
For “NUP205_Q92621_530_MLQGLANGPQCAHYCFSLLK (UniProt Q92621)”, the “probe-labelled cysteine peptide fold change” value was 0.0958.
With “NUP43_Q8NFH3_222_QQGNEPSQILSLTGDRVPLHCVDR (UniProt Q8NFH3)” the “probe-labelled cysteine peptide fold change” value was -0.0453.
For “NUP98_P52948_1027_ADTSQEICSPR (UniProt P52948)”, the “probe-labelled cysteine peptide fold change” value was 0.345.
“ODR4_Q5SWX8_77_LDNLDEEWATEHACQVSR (UniProt Q5SWX8)” was tested, and the “probe-labelled cysteine peptide fold change” value was -0.0829.
“NUMA1_Q14980_1907_NSFYMGTCQDEPEQLDDWNR (UniProt Q14980)” was tested, and the “probe-labelled cysteine peptide fold change” value was 0.0678.
For “NUMA1_Q14980_1367_HLCQQLQAEQAAAEK (UniProt Q14980)”, the “probe-labelled cysteine peptide fold change” value was -0.031.
With “NUP43_Q8NFH3_222_QQGNEPSQILSLTGDRVPLHCVDRHPNQQHVVATGGQDGMLSIWDVR (UniProt Q8NFH3)” the “probe-labelled cysteine peptide fold change” value was -0.276.
“NUP93_Q8N1F7_209_IVNGHLQPNLVDLCASVAELDDK (UniProt Q8N1F7)” was tested, and the “probe-labelled cysteine peptide fold change” value was 0.227.
With “OGFOD3_Q6PK18_90_FIEVPCSEDYDSHR (UniProt Q6PK18)” the “probe-labelled cysteine peptide fold change” value was -0.115.
For “OGDH_Q02218_283_RFGLEGCEVLIPALK (UniProt Q02218)”, the “probe-labelled cysteine peptide fold change” value was 0.124.
With “NUS1_Q96E22_164_QQQELLGLDCSK (UniProt Q96E22)” the “probe-labelled cysteine peptide fold change” value was -0.0354.
“NUMA1_Q14980_1367_HLCQQLQAEQAAAEKR (UniProt Q14980)” was tested, and the “probe-labelled cysteine peptide fold change” value was -0.0853.
“NUP160_Q12769_318_EQMCLMVADMLEYVPVKK (UniProt Q12769)” was tested, and the “probe-labelled cysteine peptide fold change” value was 0.0933.
With “NUMA1_Q14980_1673_EAEQTCR (UniProt Q14980)” the “probe-labelled cysteine peptide fold change” value was 0.00328.
In the case of “NUDT14_O95848_127_EAWEECGYHLAPSDLRR (UniProt O95848)”, the “probe-labelled cysteine peptide fold change” value is reported as -0.0711.
With “NUDC_Q9Y266_188_WTQTLSELDLAVPFCVNFR (UniProt Q9Y266)” the “probe-labelled cysteine peptide fold change” value was 0.00376.
“NUDT12_Q9BQG2_247_QRHENCYFLHPPMPALLQLK (UniProt Q9BQG2)” was tested, and the “probe-labelled cysteine peptide fold change” value was -0.0345.
In the case of “NUP160_Q12769_303_GDQSPSDRPLSLAVHCVEHDAFIFALCQDHK (UniProt Q12769)”, the “probe-labelled cysteine peptide fold change” value is reported as 0.137.
“NUBP2_Q9Y5Y2_196_VMGIVENMSGFTCPHCTECTSVFSR (UniProt Q9Y5Y2)” was tested, and the “probe-labelled cysteine peptide fold change” value was 0.0461.
For “NVL_O15381_626_ALGLVTPAGVLLAGPPGCGK (UniProt O15381)”, the “probe-labelled cysteine peptide fold change” value was 0.092.
In the case of “OCIAD2_Q56VL3_46_ECQEESFWK (UniProt Q56VL3)”, the “probe-labelled cysteine peptide fold change” value is reported as 0.159.
In the case of “NUP107_P57740_78_QPDISCILGTGGK (UniProt P57740)”, the “probe-labelled cysteine peptide fold change” value is reported as -0.2.
In the case of “OGDH_Q02218_283_FGLEGCEVLIPALK (UniProt Q02218)”, the “probe-labelled cysteine peptide fold change” value is reported as -0.00551.
“OGDH_Q02218_507_DVVVDLVCYR (UniProt Q02218)” was tested, and the “probe-labelled cysteine peptide fold change” value was 0.154.
In the case of “OGFOD1_Q8N543_64_RTPFSHEVIVMDMDPFLHCVIPNFIQSQDFLEGLQK (UniProt Q8N543)”, the “probe-labelled cysteine peptide fold change” value is reported as -0.106.
In the case of “OBSL1_O75147_209_LPDSGVYVCHAR (UniProt O75147)”, the “probe-labelled cysteine peptide fold change” value is reported as 0.157.
In the case of “NUDT14_O95848_12_CAASPYLRPLTLHYR (UniProt O95848)”, the “probe-labelled cysteine peptide fold change” value is reported as 0.0208.
With “NUMA1_Q14980_80_KHPSSPECLVSAQK (UniProt Q14980)” the “probe-labelled cysteine peptide fold change” value was -0.198.
With “OAS1_P00973_25_FIEDYLLPDTCFR (UniProt P00973)” the “probe-labelled cysteine peptide fold change” value was -0.115.
In the case of “NUDT8_Q8WV74_39_ARPASAAVLVPLCSVR (UniProt Q8WV74)”, the “probe-labelled cysteine peptide fold change” value is reported as 0.19.
In the case of “NUP133_Q8WUM0_700+702_EVSQVDTICECLLEHEEQVLR (UniProt Q8WUM0)”, the “probe-labelled cysteine peptide fold change” value is reported as 0.631.
In the case of “NUDT21_O43809_144_QDGVLQDWVIDDCIGNWWRPNFEPPQYPYIPAHITKPK (UniProt O43809)”, the “probe-labelled cysteine peptide fold change” value is reported as 0.0245.
“OGFOD1_Q8N543_308_VCEALEHGHVEWSSR (UniProt Q8N543)” was tested, and the “probe-labelled cysteine peptide fold change” value was 0.129.
“NUMA1_Q14980_65_LDFVCSFLQK (UniProt Q14980)” was tested, and the “probe-labelled cysteine peptide fold change” value was 0.113.
With “NUP153_P49790_860_FKKPEGSWDCELCLVQNK (UniProt P49790)” the “probe-labelled cysteine peptide fold change” value was -0.0529.
In the case of “NUP98_P52948_1419_KQINVCSQLDWK (UniProt P52948)”, the “probe-labelled cysteine peptide fold change” value is reported as 0.12.
